The values that follow come from paper PMC9066097.

Sequences of proteins named here, by UniProt entry; tags and fusion partners are left off. A change or cut given only in a name is not applied to a line headed by its entry.
UniProt Q13263: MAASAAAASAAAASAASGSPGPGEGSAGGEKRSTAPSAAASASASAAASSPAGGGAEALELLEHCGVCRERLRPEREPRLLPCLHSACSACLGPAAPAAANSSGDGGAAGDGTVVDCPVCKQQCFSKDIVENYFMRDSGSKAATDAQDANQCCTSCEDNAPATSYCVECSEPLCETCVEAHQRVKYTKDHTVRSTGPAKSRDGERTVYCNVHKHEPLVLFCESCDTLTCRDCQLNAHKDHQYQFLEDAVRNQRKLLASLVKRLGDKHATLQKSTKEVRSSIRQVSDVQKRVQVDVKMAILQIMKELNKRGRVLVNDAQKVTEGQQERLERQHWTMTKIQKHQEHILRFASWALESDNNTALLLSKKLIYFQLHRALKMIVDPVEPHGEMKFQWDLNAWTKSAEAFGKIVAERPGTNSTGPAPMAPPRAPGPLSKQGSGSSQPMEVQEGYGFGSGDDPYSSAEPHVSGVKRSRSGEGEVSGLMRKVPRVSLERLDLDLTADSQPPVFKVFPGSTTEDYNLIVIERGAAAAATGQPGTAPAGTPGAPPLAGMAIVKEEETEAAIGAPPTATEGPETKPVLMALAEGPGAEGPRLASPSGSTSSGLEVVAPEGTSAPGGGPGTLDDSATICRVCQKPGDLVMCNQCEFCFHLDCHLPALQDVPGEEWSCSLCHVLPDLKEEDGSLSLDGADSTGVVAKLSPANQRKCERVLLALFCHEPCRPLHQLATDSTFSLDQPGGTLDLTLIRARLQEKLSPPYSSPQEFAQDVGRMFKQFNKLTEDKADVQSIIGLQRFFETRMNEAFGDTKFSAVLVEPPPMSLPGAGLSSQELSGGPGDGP
UniProt Q96EB6: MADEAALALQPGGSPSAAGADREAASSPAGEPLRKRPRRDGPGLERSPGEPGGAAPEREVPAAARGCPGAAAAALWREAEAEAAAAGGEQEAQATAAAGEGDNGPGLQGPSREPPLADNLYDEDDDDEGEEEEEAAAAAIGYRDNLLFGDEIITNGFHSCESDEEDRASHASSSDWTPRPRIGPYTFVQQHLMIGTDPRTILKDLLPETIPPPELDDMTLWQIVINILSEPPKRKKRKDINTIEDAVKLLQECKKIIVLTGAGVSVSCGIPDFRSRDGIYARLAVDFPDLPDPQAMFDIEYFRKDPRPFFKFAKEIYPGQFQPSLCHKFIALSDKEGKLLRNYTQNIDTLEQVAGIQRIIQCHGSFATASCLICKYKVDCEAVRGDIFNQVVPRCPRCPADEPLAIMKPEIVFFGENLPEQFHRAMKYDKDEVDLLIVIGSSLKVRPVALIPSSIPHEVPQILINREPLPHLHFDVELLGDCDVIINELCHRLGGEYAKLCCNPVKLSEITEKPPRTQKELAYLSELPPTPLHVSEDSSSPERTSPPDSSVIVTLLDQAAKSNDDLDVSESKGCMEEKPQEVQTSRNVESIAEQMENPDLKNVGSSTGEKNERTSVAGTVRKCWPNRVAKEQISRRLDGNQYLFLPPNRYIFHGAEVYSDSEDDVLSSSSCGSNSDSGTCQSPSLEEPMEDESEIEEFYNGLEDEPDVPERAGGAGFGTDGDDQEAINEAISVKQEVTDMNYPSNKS

No constants are given. Whether binding was seen depends on the method and setting. Binding seen in cells or lysates may run through a third protein. Binding can be weak; no strength is given.

The target of the experiment is FLAG-TRIM28 (UniProt Q13263). Kind of experiment: co-IP; anti-FLAG agarose IP from lysates of HeLa cells co-transfected with EGFP-SIRT1 forms and FLAG-TRIM28 for 24 h; western blot. Background: A western blot detects proteins with antibodies after separation by electrophoresis.

Consider “EGFP-SIRT1^ΔC703 (from UniProt Q96EB6) (domain or fragment)”, for which the binding result is on record as “binds”.
